± gives the standard deviation of the averaged measurements. This is a selection; strong and weak results do not stand in their true shares. Most entries show no effect beyond the scatter of the controls.
Compound: Nc1ncnc2c1ncn2[C@@H]1O[C@H](COP(=O)(O)OP(=O)(O)NP(=O)(O)O)[C@@H](O)[C@H]1O [adenylyl imidodiphosphate]
Experiment: NP40-soluble protein abundance relative to vehicle (solubility fold change) (ratio); higher = more soluble protein in presence of AMP-PNP
In short: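 Data come from three independent experiments in which Dounce-homogenised Jurkat crude lysate was treated at eight concentrations from 0.1 to 10 mM. Treatment ran 10 min at room temperature and then 3 min at 37 °C, after which 0.8% NP40 and benzonase were added for 60 min at 4 °C before ultracentrifugation. The supernatant underwent TMT labelling and LC-MS/MS, and vsn-normalised intensities were expressed as fold change against the detergent-processed vehicle in each replicate.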

By UniProt entry, the sequences of proteins in these tests, tags left out. Where a name states a change or a piece, a line headed by the entry shows the natural chain unless it says otherwise.
UniProt Q71RG4: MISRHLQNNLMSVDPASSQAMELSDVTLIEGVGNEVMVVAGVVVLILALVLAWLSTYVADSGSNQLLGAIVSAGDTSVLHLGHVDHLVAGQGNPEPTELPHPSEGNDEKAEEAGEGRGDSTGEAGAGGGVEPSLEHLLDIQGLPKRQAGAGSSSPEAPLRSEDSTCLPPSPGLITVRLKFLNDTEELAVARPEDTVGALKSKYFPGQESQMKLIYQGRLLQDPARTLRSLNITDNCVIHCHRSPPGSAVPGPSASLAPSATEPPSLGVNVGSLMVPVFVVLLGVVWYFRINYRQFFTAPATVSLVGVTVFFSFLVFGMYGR
UniProt P08962, whole entry: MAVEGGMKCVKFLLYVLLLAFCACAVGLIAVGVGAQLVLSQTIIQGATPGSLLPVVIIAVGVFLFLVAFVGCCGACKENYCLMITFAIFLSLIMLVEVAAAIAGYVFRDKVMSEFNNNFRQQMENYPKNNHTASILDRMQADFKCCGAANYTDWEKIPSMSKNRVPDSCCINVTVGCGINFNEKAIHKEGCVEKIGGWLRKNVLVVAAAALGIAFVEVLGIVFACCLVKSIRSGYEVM
UniProt Q15631: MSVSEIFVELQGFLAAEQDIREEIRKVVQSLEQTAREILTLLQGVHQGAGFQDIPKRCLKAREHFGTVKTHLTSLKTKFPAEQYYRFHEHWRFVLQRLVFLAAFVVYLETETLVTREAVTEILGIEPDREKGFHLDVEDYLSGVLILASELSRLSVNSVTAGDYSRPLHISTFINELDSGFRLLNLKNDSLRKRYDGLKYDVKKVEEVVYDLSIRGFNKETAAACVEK
UniProt Q9HC38: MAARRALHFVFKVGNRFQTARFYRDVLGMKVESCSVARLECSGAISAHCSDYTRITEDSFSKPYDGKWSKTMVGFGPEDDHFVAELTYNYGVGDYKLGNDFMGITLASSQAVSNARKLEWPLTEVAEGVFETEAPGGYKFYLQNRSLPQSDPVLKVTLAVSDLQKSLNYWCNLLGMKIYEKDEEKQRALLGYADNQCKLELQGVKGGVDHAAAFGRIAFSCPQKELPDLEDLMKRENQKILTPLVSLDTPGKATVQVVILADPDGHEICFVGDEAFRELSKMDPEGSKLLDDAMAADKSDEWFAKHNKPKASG
UniProt Q15434: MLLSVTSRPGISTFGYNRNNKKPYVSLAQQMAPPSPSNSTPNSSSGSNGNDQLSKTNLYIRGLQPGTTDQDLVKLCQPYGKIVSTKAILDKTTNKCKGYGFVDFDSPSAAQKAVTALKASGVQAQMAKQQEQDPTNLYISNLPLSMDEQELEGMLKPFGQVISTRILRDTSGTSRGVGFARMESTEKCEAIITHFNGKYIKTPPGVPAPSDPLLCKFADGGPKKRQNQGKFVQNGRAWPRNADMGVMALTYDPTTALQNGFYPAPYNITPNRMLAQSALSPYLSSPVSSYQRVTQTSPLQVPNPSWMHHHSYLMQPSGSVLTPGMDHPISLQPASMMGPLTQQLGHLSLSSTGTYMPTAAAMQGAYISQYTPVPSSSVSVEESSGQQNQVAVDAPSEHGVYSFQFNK
UniProt Q9NRS6: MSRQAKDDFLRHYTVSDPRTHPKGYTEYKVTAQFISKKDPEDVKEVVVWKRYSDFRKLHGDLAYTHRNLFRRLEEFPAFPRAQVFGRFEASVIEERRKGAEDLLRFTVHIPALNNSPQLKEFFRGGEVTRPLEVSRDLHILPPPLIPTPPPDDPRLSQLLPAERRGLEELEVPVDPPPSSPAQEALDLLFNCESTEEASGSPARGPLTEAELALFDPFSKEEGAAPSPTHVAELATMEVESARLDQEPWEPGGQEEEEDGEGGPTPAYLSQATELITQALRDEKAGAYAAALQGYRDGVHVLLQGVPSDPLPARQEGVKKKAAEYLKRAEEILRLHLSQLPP
UniProt P05556, whole entry: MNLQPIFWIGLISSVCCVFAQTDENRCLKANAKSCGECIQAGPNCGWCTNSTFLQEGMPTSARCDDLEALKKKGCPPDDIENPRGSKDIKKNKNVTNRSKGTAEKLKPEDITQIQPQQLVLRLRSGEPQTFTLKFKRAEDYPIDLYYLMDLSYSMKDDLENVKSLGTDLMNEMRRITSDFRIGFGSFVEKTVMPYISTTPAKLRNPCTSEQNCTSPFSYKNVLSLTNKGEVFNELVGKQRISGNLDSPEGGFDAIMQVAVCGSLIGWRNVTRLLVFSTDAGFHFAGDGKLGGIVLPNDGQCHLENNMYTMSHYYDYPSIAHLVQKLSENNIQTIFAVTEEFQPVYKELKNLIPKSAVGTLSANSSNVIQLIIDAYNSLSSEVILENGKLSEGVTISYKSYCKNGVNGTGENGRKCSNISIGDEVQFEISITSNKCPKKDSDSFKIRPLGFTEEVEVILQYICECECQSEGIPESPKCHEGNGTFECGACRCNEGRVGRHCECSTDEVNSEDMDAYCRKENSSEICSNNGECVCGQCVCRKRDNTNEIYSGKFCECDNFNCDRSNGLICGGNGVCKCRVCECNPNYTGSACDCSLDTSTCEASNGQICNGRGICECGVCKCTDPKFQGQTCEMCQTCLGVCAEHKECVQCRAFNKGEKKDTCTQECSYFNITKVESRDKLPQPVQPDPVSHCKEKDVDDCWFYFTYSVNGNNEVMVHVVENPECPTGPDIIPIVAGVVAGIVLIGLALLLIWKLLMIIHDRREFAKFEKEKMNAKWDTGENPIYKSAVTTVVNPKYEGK
UniProt P61020: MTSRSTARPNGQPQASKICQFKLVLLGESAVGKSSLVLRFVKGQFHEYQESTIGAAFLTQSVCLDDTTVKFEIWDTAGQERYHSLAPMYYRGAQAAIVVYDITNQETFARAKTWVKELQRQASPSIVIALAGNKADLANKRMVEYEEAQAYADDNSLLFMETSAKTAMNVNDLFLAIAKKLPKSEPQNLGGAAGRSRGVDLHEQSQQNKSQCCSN
UniProt Q13510, whole entry: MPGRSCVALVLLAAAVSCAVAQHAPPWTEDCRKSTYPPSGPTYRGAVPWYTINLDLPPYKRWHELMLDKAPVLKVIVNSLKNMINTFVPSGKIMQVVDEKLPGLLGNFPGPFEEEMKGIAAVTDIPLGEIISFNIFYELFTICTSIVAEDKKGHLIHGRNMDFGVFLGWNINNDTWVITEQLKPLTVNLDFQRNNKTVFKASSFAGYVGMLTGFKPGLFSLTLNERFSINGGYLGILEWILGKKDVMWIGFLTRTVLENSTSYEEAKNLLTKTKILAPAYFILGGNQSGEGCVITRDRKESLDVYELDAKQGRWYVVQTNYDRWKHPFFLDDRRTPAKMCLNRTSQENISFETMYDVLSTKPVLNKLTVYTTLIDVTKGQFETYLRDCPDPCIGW
UniProt P49023, whole entry: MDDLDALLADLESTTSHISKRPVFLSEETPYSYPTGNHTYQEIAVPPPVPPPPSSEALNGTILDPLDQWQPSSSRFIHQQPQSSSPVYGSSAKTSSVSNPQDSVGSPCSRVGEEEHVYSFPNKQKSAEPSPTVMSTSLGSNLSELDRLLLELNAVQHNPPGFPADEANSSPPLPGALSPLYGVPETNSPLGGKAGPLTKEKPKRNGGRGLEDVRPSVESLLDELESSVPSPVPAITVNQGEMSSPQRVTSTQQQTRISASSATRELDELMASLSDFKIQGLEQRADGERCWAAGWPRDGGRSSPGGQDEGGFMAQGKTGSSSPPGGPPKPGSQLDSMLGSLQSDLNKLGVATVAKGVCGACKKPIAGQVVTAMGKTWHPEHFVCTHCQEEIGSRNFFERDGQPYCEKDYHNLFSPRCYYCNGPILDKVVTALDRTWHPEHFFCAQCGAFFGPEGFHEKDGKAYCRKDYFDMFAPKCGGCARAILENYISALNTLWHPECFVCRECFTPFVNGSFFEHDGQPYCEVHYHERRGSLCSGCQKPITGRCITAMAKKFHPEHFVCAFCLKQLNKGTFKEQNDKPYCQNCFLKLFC
UniProt P57764: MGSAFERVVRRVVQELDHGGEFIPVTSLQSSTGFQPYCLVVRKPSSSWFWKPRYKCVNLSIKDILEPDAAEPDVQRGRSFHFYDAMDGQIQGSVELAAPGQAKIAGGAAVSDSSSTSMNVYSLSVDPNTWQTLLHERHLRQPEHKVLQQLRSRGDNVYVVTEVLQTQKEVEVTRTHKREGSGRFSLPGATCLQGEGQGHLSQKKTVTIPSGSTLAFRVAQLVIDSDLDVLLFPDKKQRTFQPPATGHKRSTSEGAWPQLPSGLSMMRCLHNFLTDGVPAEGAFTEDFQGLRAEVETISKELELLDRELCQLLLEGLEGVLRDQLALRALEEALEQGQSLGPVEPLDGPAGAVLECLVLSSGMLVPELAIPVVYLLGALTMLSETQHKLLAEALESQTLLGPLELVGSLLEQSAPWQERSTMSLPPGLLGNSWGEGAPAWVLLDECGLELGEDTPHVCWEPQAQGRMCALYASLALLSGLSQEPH
UniProt Q9H3F6: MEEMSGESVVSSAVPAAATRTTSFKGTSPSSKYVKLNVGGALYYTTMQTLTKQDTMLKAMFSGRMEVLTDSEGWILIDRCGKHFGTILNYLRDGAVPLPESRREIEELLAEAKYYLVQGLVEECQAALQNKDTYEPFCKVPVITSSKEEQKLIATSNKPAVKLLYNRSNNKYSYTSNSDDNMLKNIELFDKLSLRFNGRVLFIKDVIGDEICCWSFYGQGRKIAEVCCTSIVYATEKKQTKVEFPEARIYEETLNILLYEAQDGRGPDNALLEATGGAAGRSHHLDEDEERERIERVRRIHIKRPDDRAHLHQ
UniProt Q676U5: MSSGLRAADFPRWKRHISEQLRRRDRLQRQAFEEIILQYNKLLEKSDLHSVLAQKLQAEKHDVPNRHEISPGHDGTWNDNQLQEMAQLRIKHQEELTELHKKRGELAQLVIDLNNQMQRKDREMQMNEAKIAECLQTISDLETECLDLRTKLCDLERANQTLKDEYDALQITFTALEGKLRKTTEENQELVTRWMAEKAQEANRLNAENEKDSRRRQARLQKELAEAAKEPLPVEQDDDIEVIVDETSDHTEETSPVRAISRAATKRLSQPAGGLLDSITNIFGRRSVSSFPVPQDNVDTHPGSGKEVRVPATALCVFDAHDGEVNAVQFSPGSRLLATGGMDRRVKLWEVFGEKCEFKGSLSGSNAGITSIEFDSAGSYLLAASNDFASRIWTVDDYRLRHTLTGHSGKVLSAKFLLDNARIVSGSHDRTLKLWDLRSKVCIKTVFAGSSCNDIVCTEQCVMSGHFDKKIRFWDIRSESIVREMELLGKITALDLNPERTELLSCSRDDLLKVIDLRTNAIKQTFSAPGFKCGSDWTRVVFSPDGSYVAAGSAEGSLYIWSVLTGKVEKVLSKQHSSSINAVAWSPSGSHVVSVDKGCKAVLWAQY
UniProt Q9UHB6: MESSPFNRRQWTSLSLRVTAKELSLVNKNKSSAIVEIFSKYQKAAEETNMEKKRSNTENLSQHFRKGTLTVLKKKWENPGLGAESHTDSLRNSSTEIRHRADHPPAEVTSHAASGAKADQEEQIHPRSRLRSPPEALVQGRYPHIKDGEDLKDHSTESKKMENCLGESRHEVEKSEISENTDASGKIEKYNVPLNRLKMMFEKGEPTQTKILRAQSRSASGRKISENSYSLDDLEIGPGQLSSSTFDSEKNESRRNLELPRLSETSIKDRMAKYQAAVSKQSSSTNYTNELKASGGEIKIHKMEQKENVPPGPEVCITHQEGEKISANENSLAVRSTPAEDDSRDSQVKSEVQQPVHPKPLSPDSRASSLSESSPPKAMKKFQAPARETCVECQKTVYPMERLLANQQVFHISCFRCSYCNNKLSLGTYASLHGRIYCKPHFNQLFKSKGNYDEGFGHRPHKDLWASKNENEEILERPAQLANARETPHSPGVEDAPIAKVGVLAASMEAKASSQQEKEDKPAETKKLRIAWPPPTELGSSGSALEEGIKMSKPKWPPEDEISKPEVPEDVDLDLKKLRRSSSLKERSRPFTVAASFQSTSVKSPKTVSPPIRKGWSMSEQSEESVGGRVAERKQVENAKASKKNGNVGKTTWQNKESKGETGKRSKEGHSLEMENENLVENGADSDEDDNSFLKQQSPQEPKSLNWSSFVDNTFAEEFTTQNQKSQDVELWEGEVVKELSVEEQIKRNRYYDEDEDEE
UniProt Q96A26: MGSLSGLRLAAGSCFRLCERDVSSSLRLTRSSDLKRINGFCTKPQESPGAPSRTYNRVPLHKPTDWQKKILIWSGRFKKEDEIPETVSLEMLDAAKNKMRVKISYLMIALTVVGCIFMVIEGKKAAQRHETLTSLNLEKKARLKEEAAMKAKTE
UniProt O00193: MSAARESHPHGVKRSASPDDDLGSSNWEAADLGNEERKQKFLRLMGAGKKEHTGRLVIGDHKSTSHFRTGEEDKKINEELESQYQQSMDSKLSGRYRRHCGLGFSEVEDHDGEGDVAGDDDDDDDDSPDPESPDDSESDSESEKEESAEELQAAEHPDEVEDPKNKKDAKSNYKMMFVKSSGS
UniProt P27348: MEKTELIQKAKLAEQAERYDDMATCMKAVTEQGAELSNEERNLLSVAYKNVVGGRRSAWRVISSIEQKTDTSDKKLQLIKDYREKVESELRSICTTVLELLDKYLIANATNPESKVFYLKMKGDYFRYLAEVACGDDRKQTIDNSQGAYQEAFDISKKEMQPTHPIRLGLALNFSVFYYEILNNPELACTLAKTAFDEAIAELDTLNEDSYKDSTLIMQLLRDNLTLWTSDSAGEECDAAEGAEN

Target | NP40-soluble protein abundance (concentration: 0.1mM) | NP40-soluble protein abundance (concentration: 0.5mM)
E7ESS3 and related entries (UniProt Q71RG4) | 0.977 ± 0.043 | 0.993 ± 0.033
F8VV56 and related entries (UniProt P08962) | 0.957 ± 0.032 | 0.98 ± 0.04
E9PMC9 and related entries (UniProt Q7Z589) | 0.986 ± 0.036 | 0.997 ± 0.047
F8VQQ3 and related entries (UniProt Q9HB07) | 1.04 ± 0.015 | 1.01 ± 0.024
E9PGT1 and related entries (UniProt Q15631) | 1.04 ± 0.073 | 1.03 ± 0.076
E9PCD7 and related entries (UniProt Q9Y2E5) | 0.986 ± 0.013 | 0.973 ± 0.023
E9PF16 and related entries (UniProt Q96CM8) | 1.03 ± 0.035 | 0.989 ± 0.044
F6TLX2 and related entries (UniProt Q9HC38) | 0.979 ± 0.015 | 0.984 ± 0.031
F8W0Q9 and related entries (UniProt Q8NEY8) | 0.981 ± 0.03 | 0.977 ± 0.045
E7EMP6 and related entries (UniProt Q96FZ2) | 1.01 ± 0.0055 | 0.9829 ± 0.0094
F8W1T6 and related entries (UniProt Q15434) | 0.9791 ± 0.0071 | 1.03 ± 0.014
F2Z388 and related entries (UniProt P42766) | 1.017 ± 0.0072 | 1.04 ± 0.035
E9PK26 and related entries (UniProt Q9NRS6) | 1.01 ± 0.023 | 0.982 ± 0.043
F6U236 and related entries (UniProt Q9BY11) | 0.954 ± 0.041 | 0.964 ± 0.075
E7EUI6 and related entries (UniProt P05556) | 0.941 ± 0.015 | 0.984 ± 0.049
F8W8D3 and related entries (UniProt Q14493) | 1.01 ± 0.016 | 1.05 ± 0.031
F8VVZ0 and related entries (UniProt P61020) | 1.02 ± 0.02 | 1.021 ± 0.0037
E7EMM4 and related entries (UniProt Q13510) | 0.995 ± 0.024 | 0.989 ± 0.022
F5GZ78 and related entries (UniProt P49023) | 0.961 ± 0.014 | 0.976 ± 0.029
E9PQR9 and related entries (UniProt P57764) | 1.02 ± 0.061 | 0.961 ± 0.034
E9PLL1 and related entries (UniProt O76062) | 0.99 ± 0.051 | 0.953 ± 0.058

Full records from above. Order of values: NP40-soluble protein abundance (concentration: 0.1mM) | NP40-soluble protein abundance (concentration: 0.5mM)
F2Z388 and related entries (UniProt P42766) in the list: 1.017 ± 0.0072 | 1.04 ± 0.035
E9PCD7 and related entries (UniProt Q9Y2E5) in the list: 0.986 ± 0.013 | 0.973 ± 0.023
F5GZ78 and related entries (UniProt P49023) in the list: 0.961 ± 0.014 | 0.976 ± 0.029

(list continues)

Target | NP40-soluble protein abundance (concentration: 0.1mM) | NP40-soluble protein abundance (concentration: 0.5mM)
F6S7C4 and related entries (UniProt Q8NEM7) | 1.003 ± 0.0029 | 1 ± 0.041
E9PK61 and related entries (UniProt O14681) | 1.03 ± 0.031 | 0.998 ± 0.043
F5GWA4 and related entries (UniProt Q9H3F6) | 1.0003 ± 0.00028 | 0.9762 ± 0.0025
E9PF32 and related entries (UniProt A2RUS2) | 0.995 ± 0.066 | 0.979 ± 0.051
E7EVC7 and related entries (UniProt Q676U5) | 0.972 ± 0.033 | 0.978 ± 0.04
F2Z2Y3 and related entries (UniProt Q9H8W3) | 1.01 ± 0.005 | 1.03 ± 0.022
E9PQL0 and related entries (UniProt Q86UB9) | 1 ± 0.015 | 0.997 ± 0.012
E9PGT6 and related entries (UniProt Q99627) | 1.018 ± 0.0053 | 1.01 ± 0.034
E9PAV3 and related entries (UniProt Q13765+H0YHX9+F8VZJ2+E9PAV3) | 0.986 ± 0.044 | 0.991 ± 0.055
F8VQE1 and related entries (UniProt Q9UHB6) | 1.04 ± 0.022 | 1.12 ± 0.017
F8W7Q4 and related entries (UniProt Q96A26) | 1.01 ± 0.041 | 1.05 ± 0.094
E9PB61 and related entries (UniProt Q86V81) | 0.967 ± 0.017 | 0.991 ± 0.056
F5GWT4 and related entries (UniProt Q9H4A3) | 1.01 ± 0.036 | 1.02 ± 0.051
E9PFK9 and related entries (UniProt Q9UJ41) | 0.979 ± 0.049 | 1.01 ± 0.077
E9PM92 and related entries (UniProt O00193+E9PM92) | 1.03 ± 0.024 | 1.15 ± 0.12
E7EN86 and related entries (UniProt P52747) | 0.972 ± 0.031 | 0.985 ± 0.033
G3V3H3 and related entries (UniProt Q07866) | 0.971 ± 0.038 | 1.01 ± 0.03
E9PKC0 and related entries (UniProt Q6IQ23) | 1.02 ± 0.028 | 0.994 ± 0.043
E9PG15 and related entries (UniProt P27348) | 1 ± 0.069 | 1.03 ± 0.078
E9PJM3 and related entries (UniProt Q9UK99) | 0.992 ± 0.015 | 0.965 ± 0.055
E9PJ68 and related entries (UniProt O75387) | 0.9985 ± 0.0075 | 1.02 ± 0.025

— the supplement of paper PMC6411743
